In patent US20260207765A1, “COVALENTLY-MODIFIED STEROID ACID-PEPTIDES HAVING ENHANCED STABILITY AND/OR BIOLOGICAL ACTIVITY” (priority 2022, published 2026):
Not every detail of the peptide structures is certain; ends, links or a residue may be inferred. Positions of bridges follow the written chain, without caps; N, C: chain ends. Residues, ends and D or L forms follow the SMILES beside them. Chains are numbered I, II in the order given. *: point of attachment. Chenodeoxycholyl = C[C@H](CCC(=O)*)[C@H]1CC[C@H]2[C@@H]3[C@H](O)C[C@@H]4C[C@H](O)CC[C@]4(C)[C@H]3CC[C@]12C

Experiments:
WT MSCs = test: Cell death after cytochrome-c pulsing (endosomal membrane damage), murine MSCs; type: cell-based
[1] = test system: wild-type MSC and B3Z reporter system; test: Antigen cross-presentation, wild-type MSC and B3Z reporter system
B16 melanoma = test: B16 tumor model in mice; type: in vivo, mouse
WT murine MSCs = test: Antigen uptake (OVA-AF647) and processing (OVA-DQ) in murine MSCs; type: cell-based; settings: increasing concentrations 1-50 μM
[2] = test system: human bone marrow MSCs (hBM-MSC); test: Cell death after cytochrome-c pulsing, human MSCs; type: cell-based; settings: 10 μM combined with cytochrome C
EL4 lymphoma = test: EL4 tumor model in mice; type: in vivo, mouse
Procedure: Female C57BL/6 mice (n=10/group) received a SC injection of 5×10^5 EL4 cells at Day 0. […] For all depletion studies, antibodies were injected via the intraperitoneal route at days 0, 3 and 6 at a concentration of 200 μg/injection. Tumor size and animal survival for all of the above listed in vivo studies was followed thereafter using a digital caliber until reaching endpoints (ulceration or a tumor volume ≥1000 mm^3).

E0771 breast cancer = test: E0771 tumor model in mice; type: in vivo, mouse
murine MSCs = test: MitoSOX ROS production in murine MSCs; type: cell-based; settings: 10 μM, 3 h versus overnight
B16F10 tumor [3] = test: In vivo B16F10 tumor model, intratumoral treatment; set-up: species or system mouse
[4] = test system: human bone marrow MSCs (hBM-MSC); test: MitoSOX ROS production in human MSCs; type: cell-based; settings: 10 μM, 2 h versus overnight
B16F10 tumor [5] = test: In vivo B16F10 tumor model, intranasal treatment (lung nodules); set-up: species or system mouse
[6] = test system: human bone marrow MSCs (hBM-MSC); test: Antigen uptake in human MSCs; type: cell-based; settings: 10 μM, 1 h or 3 h
[7] = Stability testing (impurities by HPLC); type: physicochemical
Description: GMP synthesis of the CDCA-C-SV40 monomer yielded a white powder and the results of initial stability testing is summarized below:
As shown above, two main impurities were detected by HPLC relating to the reactivity of the free thiol group of the CDCA-C-SV40 monomer, namely impurities resulting from oxidation of the thiol group (Impurity A) and the formation an intermolecular disulfide bond via the thiol groups of two CDCA-C-SV40 monomers, producing a (CDCA-C-SV40)2 dimer (Impurity B).
To attempt to improve stability, the synthesis protocol of CDCA-C-SV40 was modified to produce the conjugate directly in its dimerized form (Impurity B). […] At 25° C., total impurities rose only slightly from 1.6% at Day 0 to 2.1% after 3 months. At 40° C., total impurities rose from 1.6% at Day 0 to 1.7% after 5 days, 2.4% after 10 days, and to 3.7% after 30 days.

[8] = 16 mg/kg with anti-CD47, anti-CTLA-4 or anti-PD-1 Ab
[9] = intratumoral, 16 mg/kg, 6 injections

With `CC(C)[C@H](NC(=O)[C@H](CCCCN)NC(=O)[C@H](CCCNC(=N)N)NC(=O)[C@H](CCCCN)NC(=O)[C@H](CCCCN)NC(=O)[C@H](CCCCN)NC(=O)[C@@H]1CCCN1C(=O)CNC(=O)[C@H](Cc1ccc(O)cc1)NC(=O)CNC(=O)[C@H](CSSC[C@H](NC(=O)CC[C@@H](C)[C@H]1CC[C@H]2[C@@H]3[C@H](O)C[C@@H]4C[C@H](O)CC[C@]4(C)[C@H]3CC[C@]12C)C(=O)NCC(=O)N[C@@H](Cc1ccc(O)cc1)C(=O)NCC(=O)N1CCC[C@H]1C(=O)N[C@@H](CCCCN)C(=O)N[C@@H](CCCCN)C(=O)N[C@@H](CCCCN)C(=O)N[C@@H](CCCNC(=N)N)C(=O)N[C@@H](CCCCN)C(=O)N[C@H](C(=O)NCC(=O)NCC(=O)O)C(C)C)NC(=O)CC[C@@H](C)[C@H]1CC[C@H]2[C@@H]3[C@H](O)C[C@@H]4C[C@H](O)CC[C@]4(C)[C@H]3CC[C@]12C)C(=O)NCC(=O)NCC(=O)O` [(CDCA-C-SV40)2] (I: Chenodeoxycholyl-CGYGPKKKRKVGG-OH / II: Chenodeoxycholyl-CGYGPKKKRKVGG-OH; disulfide I:1-II:1) the cell death (WT MSCs; 10 μM alone) was “minimal cell death”, the cell death (WT MSCs; 10 μM combined with cytochrome C) was “increased cell death significantly” and the “cross-presentation (B3Z response)” value ([1]; 100 μM) was “no cross-presentation was observed”. For the same compound, the “cross-presentation (B3Z response)” value ([1]; OVA-pulsed WT murine MSCs, increasing doses 1-100 μM) was “enhanced cross-presentation abilities”, the “OVA cross-presentation with NADPH oxidase inhibitors” value ([1]; co-treated with ML171 and DPI) was “significant reduction in OVA cross-presentation” and the survival (B16 melanoma; 16 mg/kg) was “increased”. For the same compound, the tumor growth (B16 melanoma; 16 mg/kg) was “significantly inhibited”, the “effect in combination with an immune checkpoint inhibitor” value (B16 melanoma; [8]) was “even greater” and the “OVA internalization (OVA-AF647)” value (WT murine MSCs) was “enhance OVA internalization”. For the same compound, the “OVA processing (OVA-DQ)” value (WT murine MSCs) was “enhance OVA processing”, the cell death [2] was “enhanced cell death” and the “tumor growth and survival compared to PBS” value (EL4 lymphoma; alone, 8 mg/kg and 16 mg/kg) was “delay tumor growth and increase survival”. The “effect on tumor growth and survival in combination” value (EL4 lymphoma; combined with anti-CD47 Ab) was “enhanced”, the survival (E0771 breast cancer; 16 mg/kg) was “increased” and the tumor growth (E0771 breast cancer; 16 mg/kg) was “significantly inhibited”. For the same compound, the “effect in combination with an immune checkpoint inhibitor” value (E0771 breast cancer; [8]) was “even greater”, the “MitoSOX (mitochondrial ROS)” value (murine MSCs) was “increase in MitoSOX™ production” and the “survival vs PBS, anti-PD-1 alone or anti-LAG3 alone” value (B16F10 tumor [3]; [9]) was “enhance survival”. For the same compound, the “tumor volume vs PBS, anti-PD-1 alone or anti-LAG3 alone” value (B16F10 tumor [3]; [9]) was “reduce the tumor volume”, the effect in combination (B16F10 tumor [3]; with anti-PD-1, anti-LAG3 or both) was “enhanced” and the “MitoSOX (mitochondrial ROS)” value [4] was “increase in MitoSOX™ production”. The “effect on lung nodules in combination” value (B16F10 tumor [5]; intranasal 3 mg/kg with anti-PD-1) was “enhanced”, the “number of macroscopic nodules in the lungs vs PBS and anti-PD-1 alone” value (B16F10 tumor [5]; intranasal, 3 mg/kg, 6 injections) was “reduce the number of macroscopic modules” and the “OVA internalization and processing” value [6] was “enhance OVA internalization and processing”. The “time found to be stable” value ([7]; 5° C.) was “at least 3 months”, the total impurities ([7]; 5° C., 3 months) was 1.6% and the total impurities ([7]; 25° C., 3 months) was 2.1%. For the same compound, the total impurities ([7]; 40° C., 5 days) was 1.7%, the total impurities ([7]; 40° C., 10 days) was 2.4% and the total impurities ([7]; 40° C., 30 days) was 3.7%. It also gave a total impurities ([7]; Day 0) of 1.6%.
